These are yes or no findings as the source states them, for the method shown. Some entries that bind do so weakly or less than the wild type.
Molecular target: eRF3 (amino acid residues 166-685, expressed from pET-15b) (UniProt P05453)
Assay: [3H]-AzAt photoaffinity labeling of eRF1, eRF3 alone and of the eRF1.eRF3.GDPNP ternary complex

Protein sequences, listed by entry. Tags and fused reporters are not part of them. Residues count along the entry.
UniProt P05453, residues 166-685: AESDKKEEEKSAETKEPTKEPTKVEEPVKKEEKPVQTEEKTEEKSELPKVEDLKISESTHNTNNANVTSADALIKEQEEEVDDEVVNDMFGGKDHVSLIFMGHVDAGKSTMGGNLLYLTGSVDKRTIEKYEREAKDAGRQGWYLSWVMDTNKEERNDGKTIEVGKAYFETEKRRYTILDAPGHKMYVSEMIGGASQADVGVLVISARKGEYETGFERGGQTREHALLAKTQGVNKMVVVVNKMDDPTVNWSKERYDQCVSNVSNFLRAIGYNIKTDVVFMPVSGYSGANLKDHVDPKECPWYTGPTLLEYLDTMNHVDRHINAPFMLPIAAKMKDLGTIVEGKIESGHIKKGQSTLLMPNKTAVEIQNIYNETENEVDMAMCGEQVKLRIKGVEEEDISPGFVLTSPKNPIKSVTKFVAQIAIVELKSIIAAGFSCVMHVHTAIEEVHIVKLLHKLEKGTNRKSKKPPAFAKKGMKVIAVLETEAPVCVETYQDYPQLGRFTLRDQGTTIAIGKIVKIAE
UniProt P12385: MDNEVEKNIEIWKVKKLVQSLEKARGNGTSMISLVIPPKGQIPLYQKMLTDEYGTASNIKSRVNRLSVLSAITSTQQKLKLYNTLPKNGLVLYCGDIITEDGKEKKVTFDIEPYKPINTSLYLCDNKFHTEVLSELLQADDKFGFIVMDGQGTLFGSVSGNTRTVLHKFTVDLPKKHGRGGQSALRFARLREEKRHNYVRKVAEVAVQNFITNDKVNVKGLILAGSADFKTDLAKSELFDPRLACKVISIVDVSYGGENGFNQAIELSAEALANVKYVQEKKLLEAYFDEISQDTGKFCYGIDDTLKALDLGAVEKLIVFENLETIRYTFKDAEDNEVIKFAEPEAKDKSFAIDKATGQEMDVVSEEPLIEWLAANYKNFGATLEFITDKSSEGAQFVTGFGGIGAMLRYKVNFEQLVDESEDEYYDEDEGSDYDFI

Question: How did the binding turn out when “eRF1 (full-length, expressed from pET-15b) (from UniProt P12385 1-437)” was run?
Answer: binds

Reference: patent publication US20230235374A1, “High Throughput Assays for Detecting Translation Readthrough Inducers” (The Trustees of the University of Pennsylvania, priority 2021, published 2023)
